Test results reported in patent US20080317767A1 (priority 2004, published 2008).
[ ]: non-standard residue; d: D form. The star is where a group is joined. Piperazinyl(4-RhodamineB) = CCN(CC)c1ccc2c(-c3ccccc3C(=O)N3CCN(*)CC3)c3ccc(=[N+](CC)CC)cc-3oc2c1; X1 = CC(C)CCC[C@@H](C)[C@H]1CCC2C3CCC4C[C@@H](O*)CC[C@]4(C)C3CC[C@@]21C; Sta = CC(C)C[C@H](N)[C@@H](O)CC(=O)O; βAla = NCCC(=O)O

Assays:
[1] = general procedure: Fmoc solid-phase peptide synthesis; Fmoc-PAL-PEG-PS amide resin; Sieber amide resin; HBTU or HATU; details: whole synthesis, MS-trace, scale of the general procedure 0.25 mmol, 0.1 mmol
[2] = general procedure: Fmoc solid-phase peptide synthesis; PAL-PEG-PS; HBTU or HATU; details: whole synthesis, scale 0.1 mmol

Substance “H-E(Piperazinyl(4-RhodamineB))[βAla]GEVN[Sta]VAEFRHDSGYEVHHQKLVFFAEDVGSNKD(X1)-NH2” has a final ms purity [1] of 80.9% and an isolated mass [2] of 12.7 mg.
